PubChem BioAssay AID1259254 | NCATS | 2017
This is an unselected part of about 59,000 deposited reagents. Of all reagents, about 1,550 (2.6%) are marked active. 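G2 share is only a proxy for re-replication; each gene was hit by three separate siRNAs, and active genes were retested.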 The raw values are shown without normalisation. Reagents against one gene are numbered here. The record does not give: the amount of reagent.

Aim: 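Gene knock-downs that lead to re-replication, shown by excess G2 DNA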 (primary screen)
System: human HCT116 colorectal cancer cells
Reagent: single siRNA against human genes
Duration: 3 days
Read-out: 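Nuclei stained with Hoechst and imaged; cell-cycle phase assigned by DNA content; G2 share scaled per plate, non-targeting siRNA 0%, GMNN siRNA 100%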
Reading the numbers: G2 robust z-score and G2 cells, % of GMNN control: higher = more G2 cells, more excess DNA replication; raw share of cells in G2: higher = larger share of cells with G2 DNA content
Call rule: 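Active siRNAs have a G2 robust z of 5 or more median absolute deviations over the median, which in these data means about 38% or higher of GMNN control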

no.	gene	siRNA no.	G2 robust z-score	G2 cells, % of GMNN control	raw share of cells in G2 (%)	outcome
1	TOX2 (GeneID 84969)	1	-0.764	-2.41	3.06	inactive
2	TOX2 (GeneID 84969)	2	-0.493	-0.499	2.84	inactive
3	TOX2 (GeneID 84969)	3	-0.34	0.577	3.11	inactive
4	LY6G6F (GeneID 259215)	1	1.55	13.9	8.71	inactive
5	LY6G6F (GeneID 259215)	2	2.14	18	10	inactive
6	LY6G6F (GeneID 259215)	3	-0.627	-1.44	2.83	inactive
7	SPCS3 (GeneID 60559)	1	0.446	6.1	7.69	inactive
8	SPCS3 (GeneID 60559)	2	-0.53	-0.763	4.64	inactive
9	SPCS3 (GeneID 60559)	3	-0.329	0.652	4.15	inactive
10	ODAD1 (GeneID 93233)	1	-0.0512	2.61	3.75	inactive
11	ODAD1 (GeneID 93233)	2	0.481	6.35	6.78	inactive
12	ODAD1 (GeneID 93233)	3	0.614	7.29	5.28	inactive
13	S100A12 (GeneID 6283)	1	3.85	30	15.4	inactive
14	S100A12 (GeneID 6283)	2	-0.0526	2.6	4.05	inactive
15	S100A12 (GeneID 6283)	3	0.0866	3.58	6.52	inactive
16	WDR73 (GeneID 84942)	1	0.365	5.53	6.43	inactive
17	WDR73 (GeneID 84942)	2	-0.315	0.754	3.24	inactive
18	WDR73 (GeneID 84942)	3	-0.114	2.17	3.61	inactive
19	CA13 (GeneID 377677)	1	-1.22	-5.64	3.47	inactive
20	CA13 (GeneID 377677)	2	0.481	6.35	7.44	inactive
21	CA13 (GeneID 377677)	3	0.492	6.43	6.63	inactive
22	OR6C2 (GeneID 341416)	1	0.192	4.32	5.93	inactive
23	OR6C2 (GeneID 341416)	2	1.35	12.5	8.27	inactive
24	OR6C2 (GeneID 341416)	3	0.35	5.43	5.64	inactive
25	DMAP1 (GeneID 55929)	1	-0.44	-0.128	6.37	inactive
26	DMAP1 (GeneID 55929)	2	1.28	11.9	8.72	inactive
27	DMAP1 (GeneID 55929)	3	0.885	9.19	8.17	inactive
28	GASK1B (GeneID 51313)	1	-1.2	-5.5	1.63	inactive
29	GASK1B (GeneID 51313)	2	0.0903	3.6	5.79	inactive
30	GASK1B (GeneID 51313)	3	0.382	5.66	5.06	inactive
